In US5981486A, “Peptide suppressing IκBα phosphorylation” (priority 1995, dated 1999):
Part of at least one peptide drawing is inferred or uncertain, most often the ends. No end group written: not given here.

Columns and labels:
Format in all cases: biochemical, human
[1] = system: partially purified IκBα phosphorylase (kinase); test: in vitro kinase assay in liquid phase with alanine-substituted peptides; details: 15 nmoles of peptide, one residue substituted with alanine, n=4, FIG. 7
[2] = system: purified IκBα kinase derived from the cytoplasm fraction of THP-1 cells; test: in vitro kinase assay, competitive inhibition of IκBα phosphorylation by peptide; details: GST-IκBα (wt) fused protein; 2.7 nM of peptide (200 times the molar ratio); FIG. 6
NFκB = NFκB activation in a cell-free system, gel shift assay; details: 15 nM peptide

| Sequence | effect on phosphorylation of the peptide by IκBα kinase [1] | other results |
| --- | --- | --- |
| MLPEAEDEESYDTESEFTEFTEDEL [283 Ala] | did not have an effect |  |
| MLPESEDEEAYDTESEFTEFTEDEL [288 Ala] | slight effect |  |
| MLPESEDEESYDAESEFTEFTEDEL [291 Ala] | slight effect |  |
| MLPESEDEESYDTEAEFTEFTEDEL [293 Ala] | significant effect |  |
| MLPESEDEESYDTESEFTEFTEDEL [peptide of the IκBα phosphorylation site] |  | phosphorylation of IκBα [2]: inhibited; phosphorylation of IκBα (NFκB; THP-1 cytoplasmic and plasma membrane enriched fractions, 20 μg/ml LPS, 10 minutes at 30° C.): inhibited; NFκB activity (analysis and quantification with the image analyzer) (NFκB; THP-1 fractions, LPS, FIG. 9, n=4): clearly inhibited; NFκB activity (gel shift assay) (NFκB; THP-1 fractions, LPS, IL-8 κB binding site probe, FIG. 8): not observed |
